Data as given in PubChem BioAssay AID686938 (Drosophila RNAi Screening Center, 2013).
Purpose: 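Looking for CRAC channel components and the factors controlling them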 (primary screen). System: Drosophila S2R+ cells. Knock-down reagent: long dsRNA against Drosophila genes, about 0.25 µg dsRNA per well, roughly 10,000 cells. Duration: 5 days of knock-down before the calcium assay. Treatment: thapsigargin (SERCA pump blocker) to empty calcium stores; entry signal taken 4 min after adding it. Measurement: 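Duplicate raw fluo-4 intensities per well from a plate reader, at rest and four minutes after thapsigargin emptied calcium stores; entry-to-rest ratio filled for only some wells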. Reading the numbers: calcium entry signal: higher = stronger calcium signal after store depletion; entry to resting ratio: higher = more calcium entry relative to resting level; resting calcium signal: higher = higher resting calcium signal. Units: calcium entry signal in fluorescence units; resting calcium signal in fluorescence units. Active means: 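Hit if the duplicate-averaged plate z-score for entry over resting signal is under −3; wells with weak total dye signal (Fmax z < −2) or more than 5 off-targets removed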. Meaning of the calls: active = strongly reduced calcium entry; inactive = no strong reduction.
The deposit covers about 23,000 reagents; this is an unselected part of those that have a named target and a result. Over the whole deposit, 75 (0.33%) are marked active. 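Raw plate signals without normalisation; calls rest on plate z-scores that were not deposited; ratio present for only 364 wells.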 The numbers tell different reagents against one gene apart. Names joined by + are all predicted targets of the reagent. Not given: the dose of the treatment.

gene | reagent no. | calcium entry signal, replicate 1 | calcium entry signal, replicate 2 | entry to resting ratio | resting calcium signal, replicate 1 | resting calcium signal, replicate 2 | Outcome
CG11367 | 1 | 2.50e7 | 2.95e7 | – | 1.45e7 | 1.42e7 | inactive
imd | 1 | 3.97e7 | 3.43e7 | – | 1.83e7 | 1.57e7 | inactive
CG30109 | 1 | 3.57e7 | 4.95e7 | – | 1.70e7 | 2.55e7 | inactive
bur | 1 | 2.74e7 | – | – | 1.31e7 | – | inactive
CG15403 | 1 | 2.64e7 | 2.54e7 | – | 1.27e7 | 1.27e7 | inactive
Or22a | 1 | 3.84e7 | 5.83e7 | – | 1.89e7 | 2.26e7 | inactive
CG10657 | 1 | 4.51e7 | 5.20e7 | – | 3.05e7 | 2.56e7 | inactive
CG4382 | 1 | 2.93e7 | 5.76e7 | – | 1.53e7 | 2.57e7 | inactive
CG10725 | 1 | 4.40e7 | 3.05e7 | – | 2.76e7 | 1.50e7 | inactive
dock | 1 | 5.21e7 | – | – | 2.87e7 | – | inactive
rudhira | 1 | 2.40e7 | 2.84e7 | – | 1.38e7 | 1.45e7 | inactive
rudhira | 2 | 3.97e7 | 5.43e7 | – | 1.91e7 | 2.83e7 | inactive
rudhira | 3 | 3.11e7 | 4.45e7 | – | 1.68e7 | 1.92e7 | inactive
Nnk | 1 | 2.74e7 | 3.28e7 | – | 3.73e7 | 1.51e7 | inactive
twit | 1 | 3.33e7 | – | – | 1.75e7 | – | inactive
IRSp53 | 1 | 2.60e7 | 4.42e7 | – | 1.38e7 | 1.94e7 | inactive
Ald1 | 1 | 2.03e7 | 2.06e7 | – | 1.37e7 | 1.28e7 | inactive
Acp53C14b | 1 | 3.78e7 | 4.90e7 | – | 1.79e7 | 2.50e7 | inactive
unc-104 | 1 | 3.88e7 | 4.90e7 | – | 1.80e7 | 2.36e7 | inactive
sra | 1 | 2.70e7 | 2.35e7 | – | 1.23e7 | 1.04e7 | inactive
CG5254 | 1 | 4.69e7 | 4.73e7 | 2 | 2.30e7 | 1.93e7 | inactive
mRpL33 | 1 | 3.74e7 | 5.55e7 | – | 1.67e7 | 2.20e7 | inactive
CG1789 | 1 | 1.74e7 | 2.00e7 | – | 1.06e7 | 1.06e7 | inactive
Tollo | 1 | 3.32e7 | 4.58e7 | – | 1.68e7 | 1.79e7 | inactive
her | 1 | 5.27e7 | – | – | 2.83e7 | – | inactive
CG4017 | 1 | 3.14e7 | 4.16e7 | – | 1.71e7 | 1.92e7 | inactive
GluRS-m | 1 | 3.92e7 | 6.34e7 | – | 1.83e7 | 2.42e7 | inactive
CG13036 (retired record) | 1 | 5.15e7 | 7.97e7 | – | 2.38e7 | 2.78e7 | inactive
Cpr78Cb | 1 | 2.24e7 | 3.28e7 | – | 1.15e7 | 1.55e7 | inactive
Paip2 | 1 | 3.71e7 | 4.25e7 | – | 1.65e7 | 1.88e7 | inactive
Ttc19 | 1 | 4.45e7 | 4.84e7 | – | 2.16e7 | 2.15e7 | inactive
Tbh | 1 | 2.76e7 | 4.81e7 | – | 1.38e7 | 2.15e7 | inactive
CG2698 | 1 | 4.99e7 | 5.15e7 | – | 2.41e7 | 2.41e7 | inactive
xmas | 1 | 1.52e7 | 1.31e7 | – | 1.03e7 | 8.47e6 | active
xmas | 2 | 2.92e7 | 3.74e7 | – | 1.40e7 | 1.95e7 | inactive

A stretch of the results above, as a working copy:
gene | reagent no. | calcium entry signal, replicate 1 | calcium entry signal, replicate 2 | entry to resting ratio | resting calcium signal, replicate 1 | resting calcium signal, replicate 2 | Outcome
mRpL33 | 1 | 3.74e7 | 5.55e7 | – | 1.67e7 | 2.20e7 | inactive
CG1789 | 1 | 1.74e7 | 2.00e7 | – | 1.06e7 | 1.06e7 | inactive

Next reagents follow.
gene | reagent no. | calcium entry signal, replicate 1 | calcium entry signal, replicate 2 | entry to resting ratio | resting calcium signal, replicate 1 | resting calcium signal, replicate 2 | Outcome
CG12035 | 1 | 3.55e7 | 3.33e7 | – | 1.71e7 | 1.67e7 | inactive
Syx6 | 1 | 2.58e7 | 2.72e7 | – | 1.18e7 | 1.28e7 | inactive
BCAS2 | 1 | 4.44e7 | 5.69e7 | – | 2.06e7 | 2.48e7 | inactive
Dad | 1 | 5.06e7 | 3.16e7 | – | 2.32e7 | 1.47e7 | inactive
tal-1A + tal-2A + tal-AA + 1 more | 1 | 4.04e7 | 5.21e7 | – | 2.09e7 | 2.38e7 | inactive
CG11231 (retired record) | 1 | 5.48e7 | 4.78e7 | 2.1 | 2.58e7 | 2.18e7 | inactive
CG31368 | 1 | 4.03e7 | 3.50e7 | – | 1.86e7 | 1.79e7 | inactive
CG31368 | 2 | 2.96e7 | 3.37e7 | – | 1.32e7 | 1.58e7 | inactive
rgr | 1 | 4.85e7 | 4.19e7 | – | 1.93e7 | 2.02e7 | inactive
rgr | 2 | 5.02e7 | 3.77e7 | – | 2.09e7 | 1.81e7 | inactive
Lgr3 | 1 | 3.46e7 | 6.77e7 | – | 1.71e7 | 2.66e7 | inactive
Lgr3 | 2 | 3.21e7 | 2.41e7 | – | 1.67e7 | 1.14e7 | inactive
Gr47b | 1 | 3.59e7 | 5.86e7 | – | 1.92e7 | 2.55e7 | inactive
LpR1 | 1 | 2.76e7 | 3.28e7 | – | 1.24e7 | 1.58e7 | inactive
LpR1 | 2 | 3.92e7 | 4.29e7 | – | 1.82e7 | 1.87e7 | inactive
LpR1 | 3 | 4.36e7 | 3.83e7 | – | 2.03e7 | 1.64e7 | inactive
CG42362 + CG42363 | 1 | 2.48e7 | – | – | 1.29e7 | – | inactive
msl-1 | 1 | 2.32e7 | 3.05e7 | – | 1.24e7 | 1.53e7 | inactive
CG1371 | 1 | 4.07e7 | 3.53e7 | – | 1.65e7 | 1.55e7 | inactive
CG3088 | 1 | 5.50e7 | 4.09e7 | – | 3.58e7 | 1.71e7 | inactive
CG5849 | 1 | 4.01e7 | 4.38e7 | – | 5.24e7 | 1.93e7 | inactive
RpL5 | 1 | 1.34e7 | 1.61e7 | – | 1.06e7 | 1.08e7 | inactive
CG5399 | 1 | 2.29e7 | 3.83e7 | – | 1.20e7 | 4.48e7 | inactive
